PubChem BioAssay AID504744, Drosophila RNAi Screening Center – 2011
Test: 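Find genes whose loss alters insulin-driven dAkt phosphorylation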 (primary screen). Cell system: Drosophila Kc167 cells. Reagents: long dsRNA against Drosophila genes, 250 ng dsRNA per well of a 384-well plate. Time to read-out: 3 days of knock-down, then overnight serum-free starvation before stimulation. Treatment: bovine insulin at 387 nM for 10 minutes after 12 h without serum. Detection: 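In-cell antibody fluorescence for phospho-dAkt in each well over DNA-dye signal, with log2 residuals expressed as z-scores adjusted for cell count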. Rule for the call: 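Under insulin, a gene counts as a hit if the average z-score of two replicates lies above 2.5 or below -2.5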.
The deposit covers about 23,000 reagents; shown is an unselected part of those that have a named target and a result. Over the whole deposit, 98 (0.43%) got an active call. 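Only hit calls are given; the phospho-dAkt signals, z-scores and hit direction were not deposited.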 Names joined by + are all predicted targets of the reagent. No sequences are given here.

CG32176 [DRSC10057] — outcome: inactive
CG32176 [DRSC10058] — outcome: inactive
CG17267 [DRSC15207] — outcome: inactive
CG32488 [DRSC08549] — outcome: inactive
CG32488 [DRSC21537] — outcome: inactive
Nepl4 [DRSC03239] — outcome: inactive
Mulk [DRSC02658] — outcome: inactive
meso18E [DRSC20351] — outcome: inactive
l(2)05714 [DRSC03118] — outcome: inactive
Gle1 [DRSC06485] — outcome: inactive
CG43367 + CG32252 (retired record) [DRSC21715] — outcome: inactive
cactin [DRSC20576] — outcome: inactive
CG17544 [DRSC02624] — outcome: inactive
CG6028 [DRSC15951] — outcome: inactive
nullo [DRSC18807] — outcome: inactive
CG30466 [DRSC05556] — outcome: inactive
Toll-6 [DRSC11304] — outcome: inactive
Hex-t1 [DRSC16701] — outcome: inactive
Polr3F [DRSC15785] — outcome: inactive

Laid out differently: entries from further up.
target | DRSC id | outcome
CG17267 | DRSC15207 | inactive
CG32488 | DRSC08549 | inactive
CG32488 | DRSC21537 | inactive
Nepl4 | DRSC03239 | inactive
Mulk | DRSC02658 | inactive
meso18E | DRSC20351 | inactive
l(2)05714 | DRSC03118 | inactive
Gle1 | DRSC06485 | inactive

The results go on.
foi [DRSC10719] — outcome: inactive
Mical [DRSC14349] — outcome: inactive
Mical [DRSC14351] — outcome: inactive
Mical [DRSC15365] — outcome: inactive
Mical [DRSC15366] — outcome: inactive
mthl8 [DRSC08211] — outcome: inactive
mthl8 [DRSC08311] — outcome: inactive
CG43867 [DRSC17582] — outcome: inactive
CG43867 [DRSC17836] — outcome: inactive
CG43867 [DRSC17837] — outcome: inactive
CG43867 [DRSC17943] — outcome: inactive
Sk1 [DRSC19774] — outcome: inactive
CG14818 [DRSC18548] — outcome: inactive
sip3 [DRSC15402] — outcome: inactive
ATPsynD [DRSC14093] — outcome: inactive
CG9649 [DRSC16534] — outcome: inactive
BBS5 [DRSC12168] — outcome: inactive
Manf [DRSC14091] — outcome: inactive
CG14659 [DRSC12245] — outcome: inactive
CG8565 [DRSC20112] — outcome: inactive
CG14717 [DRSC14940] — outcome: inactive
Grip128 [DRSC20167] — outcome: inactive
cu [DRSC15643] — outcome: inactive
cu [DRSC15648] — outcome: inactive
CG34263 [DRSC07866] — outcome: inactive
CG11696 [DRSC19417] — outcome: inactive
CG9175 [DRSC03153] — outcome: inactive
HBS1 [DRSC08544] — outcome: inactive
Prx2 [DRSC20256] — outcome: inactive
step [DRSC03694] — outcome: inactive
step [DRSC03699] — outcome: inactive
Oatp58Dc [DRSC04363] — outcome: inactive
CG15742 [DRSC19708] — outcome: inactive
CR14033 [DRSC02358] — outcome: inactive
CCKLR-17D3 [DRSC20015] — outcome: inactive
CCKLR-17D3 [DRSC20017] — outcome: inactive
CG6421 [DRSC07420] — outcome: inactive
CG15394 [DRSC00408] — outcome: inactive
